# Experimental data taken from PubChem BioAssay AID2662 (National Center for Advancing Translational Sciences (NCATS), 2010).
# The chains behind the UniProt entries cited, without tags or fusion partners.
# UniProt Q03164, whole entry, looked up: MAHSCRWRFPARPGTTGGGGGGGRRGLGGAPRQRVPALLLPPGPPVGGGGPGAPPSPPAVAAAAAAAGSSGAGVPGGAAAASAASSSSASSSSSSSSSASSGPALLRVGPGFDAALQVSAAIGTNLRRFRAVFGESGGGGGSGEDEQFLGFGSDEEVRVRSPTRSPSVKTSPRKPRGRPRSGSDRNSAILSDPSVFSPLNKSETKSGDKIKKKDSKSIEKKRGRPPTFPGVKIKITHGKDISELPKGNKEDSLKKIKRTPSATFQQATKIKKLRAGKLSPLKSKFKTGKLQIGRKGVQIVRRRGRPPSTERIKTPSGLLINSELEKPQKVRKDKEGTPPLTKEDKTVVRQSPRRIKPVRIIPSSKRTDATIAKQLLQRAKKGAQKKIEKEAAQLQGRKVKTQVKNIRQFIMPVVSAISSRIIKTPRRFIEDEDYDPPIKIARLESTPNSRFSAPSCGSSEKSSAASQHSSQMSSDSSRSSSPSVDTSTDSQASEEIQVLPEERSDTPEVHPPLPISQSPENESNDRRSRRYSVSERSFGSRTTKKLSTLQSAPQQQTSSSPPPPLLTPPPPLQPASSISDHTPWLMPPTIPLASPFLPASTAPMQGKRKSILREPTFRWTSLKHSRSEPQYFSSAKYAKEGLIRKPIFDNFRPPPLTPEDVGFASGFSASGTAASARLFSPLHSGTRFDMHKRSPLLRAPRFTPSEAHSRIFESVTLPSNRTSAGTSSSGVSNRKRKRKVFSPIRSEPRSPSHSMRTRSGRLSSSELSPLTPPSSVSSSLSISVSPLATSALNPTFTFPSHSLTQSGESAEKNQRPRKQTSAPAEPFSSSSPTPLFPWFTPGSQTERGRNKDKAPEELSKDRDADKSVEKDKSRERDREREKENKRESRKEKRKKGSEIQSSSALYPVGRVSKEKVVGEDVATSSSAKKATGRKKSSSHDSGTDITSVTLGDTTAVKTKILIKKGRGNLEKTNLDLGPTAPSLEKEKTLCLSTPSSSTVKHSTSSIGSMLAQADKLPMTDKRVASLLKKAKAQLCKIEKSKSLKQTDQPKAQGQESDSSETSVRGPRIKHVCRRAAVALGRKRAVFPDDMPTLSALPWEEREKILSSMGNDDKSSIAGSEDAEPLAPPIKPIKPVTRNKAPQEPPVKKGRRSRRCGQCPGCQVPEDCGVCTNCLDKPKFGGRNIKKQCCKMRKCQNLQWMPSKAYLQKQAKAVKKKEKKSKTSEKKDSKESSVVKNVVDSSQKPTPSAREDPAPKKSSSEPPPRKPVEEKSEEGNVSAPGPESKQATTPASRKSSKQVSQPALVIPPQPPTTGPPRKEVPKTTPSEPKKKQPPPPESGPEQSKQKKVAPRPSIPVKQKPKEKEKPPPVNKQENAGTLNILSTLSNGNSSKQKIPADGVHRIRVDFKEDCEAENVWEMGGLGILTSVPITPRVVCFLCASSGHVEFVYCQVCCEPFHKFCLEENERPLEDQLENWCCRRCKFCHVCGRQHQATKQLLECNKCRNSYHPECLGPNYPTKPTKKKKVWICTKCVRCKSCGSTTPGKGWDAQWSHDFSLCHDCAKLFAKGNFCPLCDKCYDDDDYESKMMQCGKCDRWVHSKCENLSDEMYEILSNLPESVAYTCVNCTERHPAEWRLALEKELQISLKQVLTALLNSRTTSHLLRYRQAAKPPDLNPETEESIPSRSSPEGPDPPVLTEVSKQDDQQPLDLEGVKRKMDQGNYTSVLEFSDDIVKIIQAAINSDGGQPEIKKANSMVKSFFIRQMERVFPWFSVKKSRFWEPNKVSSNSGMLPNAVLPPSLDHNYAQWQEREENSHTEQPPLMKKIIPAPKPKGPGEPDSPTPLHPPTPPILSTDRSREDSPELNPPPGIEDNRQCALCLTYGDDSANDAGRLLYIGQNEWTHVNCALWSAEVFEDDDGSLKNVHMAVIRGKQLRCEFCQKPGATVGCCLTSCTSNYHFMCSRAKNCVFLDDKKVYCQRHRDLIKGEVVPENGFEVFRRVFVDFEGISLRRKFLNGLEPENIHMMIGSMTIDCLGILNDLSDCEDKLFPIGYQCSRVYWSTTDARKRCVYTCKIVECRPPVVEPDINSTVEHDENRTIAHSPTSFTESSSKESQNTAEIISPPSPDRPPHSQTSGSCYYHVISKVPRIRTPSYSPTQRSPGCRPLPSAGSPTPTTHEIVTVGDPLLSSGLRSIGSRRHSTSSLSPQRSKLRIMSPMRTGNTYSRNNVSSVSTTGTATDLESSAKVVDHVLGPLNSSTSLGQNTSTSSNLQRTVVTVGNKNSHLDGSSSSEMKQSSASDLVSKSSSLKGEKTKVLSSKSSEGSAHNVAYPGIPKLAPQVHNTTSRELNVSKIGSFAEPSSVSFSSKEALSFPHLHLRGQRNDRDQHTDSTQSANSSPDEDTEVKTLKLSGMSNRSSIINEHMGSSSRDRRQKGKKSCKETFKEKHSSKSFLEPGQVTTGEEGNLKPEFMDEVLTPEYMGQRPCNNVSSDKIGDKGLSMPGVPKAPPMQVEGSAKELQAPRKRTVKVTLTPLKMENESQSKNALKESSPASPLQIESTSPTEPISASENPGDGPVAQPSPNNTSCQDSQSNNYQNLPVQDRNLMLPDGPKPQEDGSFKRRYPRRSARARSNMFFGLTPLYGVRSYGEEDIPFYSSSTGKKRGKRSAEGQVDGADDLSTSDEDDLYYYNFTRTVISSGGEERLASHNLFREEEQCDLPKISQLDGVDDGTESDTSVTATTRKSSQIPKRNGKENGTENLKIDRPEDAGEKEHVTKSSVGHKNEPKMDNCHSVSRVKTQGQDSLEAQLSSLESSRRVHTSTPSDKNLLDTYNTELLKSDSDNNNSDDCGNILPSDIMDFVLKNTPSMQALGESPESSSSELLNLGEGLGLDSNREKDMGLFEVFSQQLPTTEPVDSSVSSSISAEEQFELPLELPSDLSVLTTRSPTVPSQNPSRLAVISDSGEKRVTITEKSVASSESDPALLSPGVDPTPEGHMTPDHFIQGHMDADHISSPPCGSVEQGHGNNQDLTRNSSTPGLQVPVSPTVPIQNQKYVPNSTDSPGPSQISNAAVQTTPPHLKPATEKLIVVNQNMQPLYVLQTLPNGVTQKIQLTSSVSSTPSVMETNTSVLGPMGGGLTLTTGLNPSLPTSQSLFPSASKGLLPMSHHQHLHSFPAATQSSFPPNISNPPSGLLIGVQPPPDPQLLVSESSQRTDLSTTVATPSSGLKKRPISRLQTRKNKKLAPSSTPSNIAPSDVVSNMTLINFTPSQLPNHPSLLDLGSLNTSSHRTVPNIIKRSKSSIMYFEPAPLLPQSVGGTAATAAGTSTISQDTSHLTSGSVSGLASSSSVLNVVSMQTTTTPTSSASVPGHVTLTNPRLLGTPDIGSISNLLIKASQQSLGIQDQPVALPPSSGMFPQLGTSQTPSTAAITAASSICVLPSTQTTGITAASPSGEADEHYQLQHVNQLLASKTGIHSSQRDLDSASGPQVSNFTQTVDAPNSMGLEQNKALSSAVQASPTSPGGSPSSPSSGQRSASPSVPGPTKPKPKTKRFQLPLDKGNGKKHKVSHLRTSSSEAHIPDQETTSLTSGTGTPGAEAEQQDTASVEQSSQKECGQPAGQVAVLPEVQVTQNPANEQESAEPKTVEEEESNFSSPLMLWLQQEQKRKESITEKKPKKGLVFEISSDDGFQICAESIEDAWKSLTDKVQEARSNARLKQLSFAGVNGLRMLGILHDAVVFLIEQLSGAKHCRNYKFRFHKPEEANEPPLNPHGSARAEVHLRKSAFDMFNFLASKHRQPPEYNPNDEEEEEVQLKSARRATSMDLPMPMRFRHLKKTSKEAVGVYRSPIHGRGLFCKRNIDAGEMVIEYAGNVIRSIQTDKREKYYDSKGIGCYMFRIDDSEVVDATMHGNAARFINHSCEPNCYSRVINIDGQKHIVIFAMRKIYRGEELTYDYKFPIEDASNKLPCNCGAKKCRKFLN
# About 110 (0.038%) of roughly 290,000 compounds were called active. The inconclusive results got no clear call from the source; some entries with a clear call stand among them for comparison. The call rests on the fitted dose curve; in most records, active means well fitted inhibition curve with a large enough effect in the polarisation, with a control signal flat (not every such curve was filed as active); inconclusive means small, poorly fitted or top-dose-only effect, or effect the other way, or a change in a side signal; inactive means no such curve, though single readings can be large or run the other way; the % refers to the polarisation. Potencies beside an inconclusive call are fits to weak or partial responses and may not hold up. “Side channel” marks fits to a control or component signal instead of the main read-out.
# Target: Histone-lysine N-methyltransferase 2A (Homo sapiens) (UniProt Q03164)
# Test: qHTS Fluorescence Polarization Assay for Inhibitors of MLL CXXC domain - DNA interaction
# Conditions: MLL-CXXC / FITC-HOXA9 DNA fluorescence polarization; series mostly up to 115 µM
# Procedure, shortened: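 Purified MLL-CXXC (added from a 7 uM solution) was preincubated 5 min at ambient with pinned compounds in 50 mM Tris-HCl pH 7.5, 50 mM NaCl, 1 mM DTT, 0.05% BSA. Fluorescein-labeled HOX-A9 DNA (50 nM solution) followed, 30 min, then polarization read.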
# Potency means the concentration at half of the fitted maximal effect.
row,Compound,Potency
1,S=c1[nH]nc(-c2cc3ccccc3o2)n1Cc1ccccc1,inactive
2,CCC(=O)N=c1sc2cc([N+](=O)[O-])ccc2n1CCOC,"inconclusive: 1 µM [fluorescent, side channel, full curve, poor fit]"
3,COc1ccc2o/c(=N/NC(=S)Nc3ccccc3)c(C(N)=O)cc2c1,"inconclusive: 50.1 µM [inhibitor, single point]"
4,COC(=O)/C(=C/c1cn(C)c2ccccc12)[N+](=O)[O-],"inconclusive: 70.8 µM [inhibitor, single point]"
5,CCOC(=O)CN1C(=O)S/C(=C/C=C/c2ccc(N(C)C)cc2)C1=O,"inconclusive: 11.2 µM [fluorescent, side channel, single point]"
6,CCOC(=O)C1=C(C)NC(=S)NC1c1ccc(-c2ccc(Cl)cc2)o1 (centres undefined),"inconclusive: 35.5 µM [fluorescent, side channel, single point]"
7,O=c1[nH]c(Nc2ccccc2)cc2ccccc12,inactive
8,O=C(COc1ccc(Cl)cc1)NCCNc1ccc([N+](=O)[O-])cc1,"inconclusive: 89.1 µM [inhibitor, single point]"
9,OCCNCc1ccc(OCc2ccc(Cl)cc2Cl)cc1,inactive
10,O=S(=O)(NC1CCCCC1N1CCN(c2ccccc2F)CC1)c1ccccc1 (centres undefined),inactive
11,Cc1ccc2nc3c(cc(C(N)=S)c(=N)n3CCCOC(C)C)c(=O)n2c1,inactive
12,CCCCN(CC)CCCNC(=O)c1cc2c(-c3ccc(OC)c(OC)c3)nn(C)c2s1,"inconclusive: 28.2 µM [quencher, side channel, partial curve]"
13,Cc1ccccc1C(C(=O)NCc1ccco1)N(CC1CCCO1)C(=O)Cn1nnc2ccccc21 (centres undefined),inactive
14,C=CCc1ccc(OCC(O)CN2CCN(c3ccccc3OC)CC2)c(OC)c1 (centres undefined),"inconclusive: 63.1 µM [fluorescent, side channel, single point]"
15,O=C(NCc1ccco1)c1cccn2c(=O)c3c4c(sc3nc12)CCCC4,"inconclusive: 28.2 µM [inhibitor, partial curve]"
16,N#Cc1c(-c2ccccc2)cc(-c2cccs2)nc1SCC(=O)O,"inconclusive: 35.5 µM [fluorescent, side channel, single point]"
17,Cc1ccc(NC(=O)CCNC(=O)c2ccccc2Cl)cc1S(=O)(=O)N(C)C,"inconclusive: 63.1 µM [fluorescent, side channel, single point]"
18,S=C(Nc1ccccc1)c1ccccn1,"inconclusive: 31.6 µM [inhibitor, single point]"
19,COc1cccc(CC(NC(C)=O)C(=O)NC2CCN(c3nc(C)cc(C)c3C#N)CC2)c1OC (centres undefined),inactive
20,COc1cccc(CN2CCN(Cc3nc(-c4cccs4)oc3C)CC2CCO)c1 (centres undefined),"inconclusive: 100 µM [inhibitor, partial curve]"
21,Cc1ccc(-n2c(Cc3cccs3)nnc2SCC(=O)Nc2ccc(F)c(F)c2)cc1,"inconclusive: 5.62 µM [quencher, side channel, full curve, poor fit]"
22,COc1cc(/C=C2\SC(=O)N(CCN)C2=O)ccc1OS(=O)(=O)c1cc(C)ccc1C,"inconclusive: 35.5 µM [quencher, side channel, partial curve]"

# An excerpt from above in order of heavy-atom count, rising:
row,Compound,Potency
3,COc1ccc2o/c(=N/NC(=S)Nc3ccccc3)c(C(N)=O)cc2c1,"inconclusive: 50.1 µM [inhibitor, single point]"
15,O=C(NCc1ccco1)c1cccn2c(=O)c3c4c(sc3nc12)CCCC4,"inconclusive: 28.2 µM [inhibitor, partial curve]"
19,COc1cccc(CC(NC(C)=O)C(=O)NC2CCN(c3nc(C)cc(C)c3C#N)CC2)c1OC (centres undefined),inactive

# (continued)

row,Compound,Potency
1,CCOC(=O)c1[nH]c2ccccc2c1NC(=O)CCN1CC(C)OC(C)C1 (centres undefined),inactive
2,Cc1ccccc1OCCNc1cc(N2CC(C)NC(C)C2)ccc1[N+](=O)[O-] (centres undefined),"inconclusive: 39.8 µM [quencher, side channel, partial curve]"
3,O=C(N/N=C/c1coc2ccccc2c1=O)c1cc(Br)ccc1O,"inconclusive: 15.8 µM [fluorescent, side channel, single point]"
4,COc1ccc(CCNC(=O)C2CC(=O)N(c3ccc(Br)cc3)C2)cc1OC (centres undefined),inactive
5,O=C(O)COc1ccccc1/C=C1\SC(=S)N(c2cccnc2)C1=O,"inconclusive: 70.8 µM [inhibitor, single point]"
6,NC(=O)NNc1ccccc1,inactive
7,CN1Cc2c(N)cccc2C(c2ccccc2)C1 (centres undefined),"inconclusive: 50.1 µM [inhibitor, partial curve, poor fit]"
8,COCCNC(=S)N/N=C/c1c2ccccc2cc2ccccc12,"inconclusive: 44.7 µM [fluorescent, side channel, single point]"
9,Cc1ccc(C(=O)NC2(O)C(=O)c3ccccc3C2=O)cc1C,"inconclusive: 17.8 µM [inhibitor, partial curve]"
10,O=C(c1ncc[nH]1)c1ccccc1Cl,"inconclusive: 2.82 µM [fluorescent, side channel, full curve]"
11,O=C(N/N=C/c1c(O)ccc2ccccc12)c1cccc(C(F)(F)F)c1,"inconclusive: 25.1 µM [fluorescent, side channel, partial curve]"
12,NC(=O)C1CC2(NC(=O)NC2=O)c2cc(F)ccc2O1 (centres undefined),inactive
13,COc1ccccc1C(=O)Nc1ccc2c(c1)nc1n2CCN(C2CCCCC2)C1,inactive
14,CN(CC(=O)Nc1ccc(F)cc1)C(=O)c1ccc(-c2ccc(Cl)cc2)o1,"inconclusive: 8.91 µM [quencher, side channel, single point]"
15,NNC(=O)[C@H](Cc1ccccc1)NC(=O)NCCc1ccccc1,"inconclusive: 31.6 µM [inhibitor, single point]"
16,COC(=O)C1=C(C)N(c2ccc(C)cc2)/C(=C/c2ccc(O)cc2)C1=O,"inconclusive: 56.2 µM [fluorescent, side channel, single point]"
17,Cc1ccc(C(=O)c2ccccc2C(=O)OCC(=O)Nc2ccc(SC(F)F)cc2)cc1,"inconclusive: 1.41 µM [fluorescent, side channel, full curve]"
18,C=C1N[C@]2(C(=O)COC(C)=O)[C@@H](C[C@H]3[C@@H]4CCC5=CC(=O)C=C[C@]5(C)[C@H]4[C@@H](O)C[C@@]32C)O1,inactive
19,O=C(COc1ccccc1)N1CCN(c2ncnc3c2cnn3-c2ccccc2)CC1,"inconclusive: 89.1 µM [inhibitor, single point]"
20,CC(c1ccccc1)C1CC(=O)N(c2cc(Cl)ccn2)C1=O (centres undefined),"inconclusive: 89.1 µM [quencher, side channel, single point]"
21,CCOc1cccc(/C=C/c2ccc3cccc(O)c3n2)c1OC,"inconclusive: 35.5 µM [fluorescent, side channel, single point]"
22,CC(C)n1c(CN(C)Cc2ccccc2)nc2c1c(=O)n(C)c(=O)n2C,"inconclusive: 44.7 µM [fluorescent, side channel, partial curve]"

row,Compound,Potency
1,COc1ccc2cc(C3c4cc(OC)c(OC)cc4CCN3C(=O)c3ccco3)c(=O)[nH]c2c1 (centres undefined),"inconclusive: 63.1 µM [fluorescent, side channel, single point]"
2,CS(=O)(=O)c1ccc(C(=O)OCc2nnc(-c3ccccc3)o2)cc1[N+](=O)[O-],"inconclusive: 35.5 µM [quencher, side channel, single point]"
3,O=C(NC1CCCC1)C1CCCN1C(=O)Nc1ccccc1 (centres undefined),inactive
4,CCCN1C(=O)/C(=c2\sc3nc(=O)c(Cc4ccc(C)cc4)nn3c2=O)c2ccccc21,"inconclusive: 11.2 µM [inhibitor, full curve, poor fit]"
5,CCCNC(=O)c1ccc(N2CCC3(CC2)CC(c2cccc(Br)c2)=NO3)c([N+](=O)[O-])c1,inactive
6,COc1cc(OC)cc(C(=O)NCC2CCCN(Cc3ccc(SC)cc3)C2)c1 (centres undefined),"inconclusive: 20 µM [quencher, side channel, partial curve]"
7,COC(=O)c1ccccc1NC(=O)NCC1CCCO1 (centres undefined),inactive
8,O=C(c1ccc(F)c(F)c1)N1CCC2(CC1)NCCc1[nH]cnc12,inactive
9,CCN(CC)C(=O)c1[nH]cnc1C(=O)N[C@@H](CC(C)C)C(=O)OCc1ccccc1,"inconclusive: 35.5 µM [inhibitor, partial curve]"
10,COCCNC(=O)/C(C#N)=C/c1c(N2CCN(C)CC2)nc2c(C)cccn2c1=O,inactive
11,CCc1ccnc(NC(=O)Nc2ccc(OCc3ccccc3)cc2)c1,"inconclusive: 15.8 µM [inhibitor, single point]"
12,O=C1/C(=C/c2cccnc2)SC(=S)N1NS(=O)(=O)c1ccccc1,"inconclusive: 28.2 µM [fluorescent, side channel, partial curve]"
13,O=C(Cc1c(F)cccc1Cl)Nc1ccccc1C(=O)N1CCOCC1,"inconclusive: 63.1 µM [inhibitor, single point]"
14,CCOc1ccccc1N=Cc1c(O)c2ccccc2oc1=O,inactive
15,COc1ccc2c(c1)S/C(=C\C(=O)c1ccncc1)N2C,"inconclusive: 63.1 µM [fluorescent, side channel, single point]"
16,Cc1cccc(NC(=O)/C(C#N)=C\c2cccnc2)c1,inactive
17,CC1(C)CC(=O)C(C(C2=C(O)CC(C)(C)CC2=O)c2cccs2)C(=O)C1 (centres undefined),"inconclusive: 31.6 µM [inhibitor, partial curve]"
18,CCCCC(Sc1nc(C)c(Cc2ccccc2)c(=O)[nH]1)C(=O)O (centres undefined),"inconclusive: 89.1 µM [inhibitor, single point]"
19,CC(C)NS(=O)(=O)c1ccc(NC(=S)NC(=O)c2cccc([N+](=O)[O-])c2)cc1,"inconclusive: 1.12 µM [fluorescent, side channel, full curve]"
20,Oc1oc(-c2cccc3ccccc23)nc1/C=N/c1nccs1,"inconclusive: 3.16 µM [fluorescent, side channel, full curve]"

# In a second layout: results already given
row	Compound	Potency
2	Cc1ccccc1OCCNc1cc(N2CC(C)NC(C)C2)ccc1[N+](=O)[O-] (centres undefined)	inconclusive: 39.8 µM [quencher, side channel, partial curve]
6	NC(=O)NNc1ccccc1	inactive
